# Laboratory results taken from the supplement of paper PMC3334620.
# In all, about 33,000 sequences were measured (“E-score (-0.5 to 0.5)”: median about -0.0034, highest 2% from about 0.25 on). The list shows a part of the results.
# Target: T1, Yap3 (UniProt P38749)
# T1 sequence: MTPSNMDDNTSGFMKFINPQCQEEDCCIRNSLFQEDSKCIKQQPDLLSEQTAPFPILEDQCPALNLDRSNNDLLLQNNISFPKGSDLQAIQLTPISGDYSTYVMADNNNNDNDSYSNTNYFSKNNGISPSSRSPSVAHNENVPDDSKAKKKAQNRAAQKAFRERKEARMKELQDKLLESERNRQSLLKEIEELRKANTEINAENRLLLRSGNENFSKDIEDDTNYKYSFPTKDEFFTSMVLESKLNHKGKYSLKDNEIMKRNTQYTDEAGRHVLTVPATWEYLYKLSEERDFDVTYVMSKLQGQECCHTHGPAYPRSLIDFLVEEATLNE
# Experiment: PBM E-score (8-mer binding enrichment) (E-score (-0.5 to 0.5)); higher = stronger / more preferred TF binding
# Details: protein concentration: 100 nM; construct: GST-full length
# How it was run: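 Each ungapped eight-base word and its reverse complement, pooled, received an E-score from the Universal PBM Analysis Suite. Underlying scans, normalised with masliner, recorded fluorescent anti-GST bound to GST-tagged yeast transcription factors. These were applied at about 100-200 nM to universal all-10-mer Agilent arrays double-stranded by primer extension.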
row,Sequence,PBM E-score
1,CCGAAGCC,-0.178
2,CAGGCTTC,0.0437
3,CAGTACAG,0.0469
4,GCCCAACA,-0.22
5,AATCCCCT,-0.187
6,AATTAGTC,0.303
7,ACAGTAGA,0.194
8,ATCCTAGA,0.0306
9,AGGGTACG,-0.0661
10,ATAGTCGG,-0.197
11,GGCGCGGA,-0.172
12,AGTGTGAC,0.0807
13,ACGTCCCC,-0.208
14,CAGTAGGG,-0.177
15,CGCGAGCC,-0.058
16,CCGGGGAA,-0.152
17,AATGGAAA,0.152
18,CGGCTCAC,0.0406
19,GCCGGTCC,-0.402
20,GCAGAGAA,0.0856
21,AGCGGTAC,0.142
22,AAAGGATA,0.172

# Given bar-delimited: part of the list above.
row | Sequence | PBM E-score
11 | GGCGCGGA | -0.172
12 | AGTGTGAC | 0.0807
13 | ACGTCCCC | -0.208
14 | CAGTAGGG | -0.177
15 | CGCGAGCC | -0.058

# Additional entries.

row,Sequence,PBM E-score
1,ATTGAGAG,0.0887
2,ACTGGTCA,-0.0141
3,GATTATAA,0.244
4,AATCACAA,0.0514
5,AGTCCGAT,0.0837
6,GTCTCAAC,-0.0974
7,AAGGGCAT,-0.253
8,CTCACGCC,-0.0142
9,GTACAGAA,-0.00324
10,GGGAGACC,-0.443
11,GTGATGTA,0.194
12,AACCCGCC,-0.0463
13,ATATAGGG,-0.0709
14,GTCGCCCA,-0.306
15,CACACTGA,-0.0359
16,ACACGTAA,0.217
17,CTACTACC,-0.0382
18,TGCCTTAA,-0.076
19,GGTTAAAA,0.107
20,CGCTAACG,0.0265
21,GCAAGGCC,-0.115
22,TTCTCCAA,0.018

row,Sequence,PBM E-score
1,CCGAGCGC,0.00891
2,TAGTCTAA,0.0413
3,AATTGTTC,0.257
4,CCTAAACA,0.0799
5,ATATCCAA,0.178
6,CTGAGTCC,-0.18
7,AGCATGAC,-0.037
8,AGATGTGG,-0.00289
9,CTTGTCAC,-0.129
10,CGTGGGTA,-0.169
11,AAGACAAG,0.045
12,GAAAGGGC,-0.321
13,AATCGATC,0.156
14,GCAAGTAC,-0.118
15,CCAGCAAG,-0.241
16,GGAGGGGA,-0.122
17,GCCAACAA,-0.049
18,CACGGCCA,-0.154
19,CCTATGCC,-0.0946
20,TGCGGTAA,-0.0155
21,ACAAAACG,0.173
22,AATAGTGT,0.186

row,Sequence,PBM E-score
1,CGGTCACA,0.0249
2,GAGGTAGC,-0.194
3,AAGTCGTG,-0.0136
4,AGCAGACC,0.00631
5,CCTCTGTA,-0.0106
6,GACTAACA,0.142
7,ACCGGTCC,-0.296
8,AGCCTTAC,-0.163
9,CGTGCTGA,0.0619
10,TACCCCCA,-0.131
11,CAGCATCC,-0.0272
12,GATCCTGA,-0.0394
13,CCGAGGGC,-0.114
14,AACCTAGG,-0.123
15,AAACGACG,0.0166
16,GCCGGGAA,-0.209
17,CTTGAATC,-0.0309
18,CTGGAGGA,-0.236
19,CGGGGCAG,-0.169
20,CCGACGAG,-0.0276
